Measurements: patent US4390613A, “Diffusion transfer photographic system utilizing substituted phenylmercaptoazoles” (Polaroid Corporation, priority 1981, dated 1983)
At least one read-out could not be matched to a standard name with certainty.

Assay: Solubility of silver salts in presence of excess anion (Table III)
Format: physicochemical
Protocol: The solubilities of the silver salts of PMT and compound II in the presence of excess amounts of their anions were measured at pH 7.0 and 13.5. Each solution was 4×10^-3 molar in silver. The results are shown in Table III wherein the solubility data is expressed in μmoles/liter of total silver.

[1] = pH 7.0, molar ratio compound/Ag 1.25/1, 4×10^-3 molar silver
[2] = pH 7.0, molar ratio compound/Ag 1.75/1, 4×10^-3 molar silver
[3] = pH 7.0, molar ratio compound/Ag 2.13/1, 4×10^-3 molar silver
[4] = pH 7.0, molar ratio compound/Ag 2.5/1, 4×10^-3 molar silver
[5] = pH 7.0, molar ratio compound/Ag 4.5/1, 4×10^-3 molar silver
[6] = pH 7.0, molar ratio compound/Ag 7.5/1, 4×10^-3 molar silver
[7] = pH 13.5, molar ratio compound/Ag 1.25/1, 4×10^-3 molar silver
[8] = pH 13.5, molar ratio compound/Ag 1.75/1, 4×10^-3 molar silver
[9] = pH 13.5, molar ratio compound/Ag 2.13/1, 4×10^-3 molar silver
[10] = pH 13.5, molar ratio compound/Ag 2.5/1, 4×10^-3 molar silver
[11] = pH 13.5, molar ratio compound/Ag 4.5/1, 4×10^-3 molar silver
[12] = pH 13.5, molar ratio compound/Ag 7.5/1, 4×10^-3 molar silver

Row | SMILES | solubility of silver salt [1] | solubility of silver salt [2] | solubility of silver salt [3] | solubility of silver salt [4] | solubility of silver salt [5] | solubility of silver salt [6] | solubility of silver salt [7] | solubility of silver salt [8] | solubility of silver salt [9] | solubility of silver salt [10] | solubility of silver salt [11] | solubility of silver salt [12]
1 | CC(=NO)c1ccc(-n2nnnc2S)cc1 [Compound II] | < 1 μmoles/liter of total silver | < 1 μmoles/liter of total silver | < 1 μmoles/liter of total silver | 2 μmoles/liter of total silver | 2 μmoles/liter of total silver | 5 μmoles/liter of total silver | 19 μmoles/liter of total silver | 44 μmoles/liter of total silver | 93 μmoles/liter of total silver | 140 μmoles/liter of total silver | 320 μmoles/liter of total silver | 1400 μmoles/liter of total silver
2 | Sc1nnnn1-c1ccccc1 [PMT, 1-phenyl-5-mercaptotetrazole, reference compound] | < 1 μmoles/liter of total silver | < 1 μmoles/liter of total silver | 1 μmoles/liter of total silver | 3 μmoles/liter of total silver | 15 μmoles/liter of total silver | 58 μmoles/liter of total silver | 1 μmoles/liter of total silver | 2 μmoles/liter of total silver | 4 μmoles/liter of total silver | 8 μmoles/liter of total silver | 18 μmoles/liter of total silver | 63 μmoles/liter of total silver
